Test results: PubChem BioAssay AID1347423 (Functional Genomics Laboratory (NCATS/FGL), 2020)
Hit rate of the full screen: of about 52,000 sequences, about 210 (0.4%) were called active.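 Rule for the calls: active = gene whose silencing raises cell survival under the drug, median off-target-corrected z-score across its silencing RNAs 2 or more; inactive = the rest.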 This is one part of the list.

assay: Resistance to Poly (ADP-Ribose) Polymerase inhibitor: Gene Identification via Genome-wide siRNA Screen; details: mouse BRCA2 R2336H ES cells, olaparib, CellTiter-Glo viability; hits give high values
In short: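 Genome-wide siRNA screen (3 siRNAs/gene, 20 nM) in mouse ES cells carrying hypomorphic BRCA2 R2336H; olaparib 500 nM added 48 h post-transfection, CellTiter-Glo viability 72 h later. Normalized to plate-median negative control; MAD z-scores, gene median, seed-adjusted.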

| Sequence | z-score |
| --- | --- |
| GGUAUUUGUAAAUUUGAGGTT against Spg3a | inactive: -0.249 |
| GGAUUUGUCACCAUUCUGCTT against Peg10 | inactive: 0.114 |
| GCCGGUUAUUUAUUUGUCATT against Sostdc1 | inactive: 0.288 |
| GGAAUUCACCUUUAAGAUGTT against 1810036H07Rik | inactive: 0.639 |
| GGGUAAAGGAGAUUGUGAUTT against Ppfibp2 | inactive: -0.253 |
| GGAACCUAACUAACAAUACTT against Rab14 | inactive: 0.681 |
| GGUUUUCUCUAAGCUGAAATT against Lum | inactive: 0.824 |
| GGCUUGAGUUUGAAGAAAUTT against Rb1 | inactive: 0.153 |
| GGACAGGUGGUUACCAUAGTT against Arid2 | inactive: -0.239 |
| CCCAAGACUGGUCUUCCCATT against Slc12a8 | inactive: -0.831 |
| GGCAGUAGUGAACAGAGACTT against 6330509G02Rik | inactive: -0.359 |
| GUCCUGGAUAUGCUCCUGUTT against Ors6 | inactive: -0.875 |
| GGCCUAUUACAAGGAAUUCTT against BC020354 | inactive: 0.549 |
| GGACAACACAUUUGUGCUCTT against Aps | inactive: -0.0534 |
| GGACGAUGUAUUGUUAUUGTT against Lrp10 | inactive: 0.267 |
| GGAGAGCUCUUUACCUAAUTT against Gk-rs1 | inactive: -0.116 |
| GGUGCUUCUCUAAGAUAAUTT against 4632434I11Rik | inactive: 1.49 |
| GGAGUUGAUCAAGACAGAGTT against S100a5 | inactive: -0.443 |
| CGGUAGAACUAACGUGAUUTT against Irx2 | inactive: 0.9 |
| GGUAUCAGUCGUCUGGGAGTT against Tas2r118 | inactive: 0.986 |
| CCACACGUGUUGAACUUGATT against Dnm2 | inactive: -1.3 |
| CAAGUACAAGCAGUUGACCTT against BC061237 | inactive: -0.393 |
| GGACUUGGGUUUCAAUUCCTT against Ddx27 | inactive: 0.618 |
| GGGAAUCAAUGAAGGAUUUTT against Calcrl | inactive: 1.26 |
| GCCUUGAAGGACCACUAGATT against Itgb1bp1 | inactive: 1.25 |
| GCUGAGGGUAAAACCGGAATT against BC045600 | inactive: -0.875 |
| GGACGGGACUUACAUAGUGTT against 4933413G11Rik | inactive: 0.312 |

| Sequence | z-score |
| --- | --- |
| GCCUUGACGAUAGAUUAUUTT against Irf2 | inactive: 0.387 |
| GGCCCUCAUGAUUGCUAUGTT against Nek8 | inactive: -0.279 |
| GCCAGAAGCAGCUUACCUGTT against Sec1 | inactive: 0.0348 |
| GGACCUAUCUGAUGUCCAGTT against Il18rap | inactive: -0.403 |
| GGGUAUAAGGACAAACAUUTT against 9030605H24Rik | inactive: 0.346 |
| GCGGCCUCAUCAUUUCAUCTT against Actr5 | inactive: 1.72 |
| GGCAUUUCAACAUCAAUAUTT against V2r1b | inactive: -0.748 |
| GGAAGUGGAAAAACUGGUGTT against Ddx1 | inactive: 2.14 |
| GACAAUACCAUAUCCUUUGTT against Olfr698 | inactive: -0.225 |
| GGAGAGGUUACUUUUGAGGTT against Slc25a13 | inactive: 0.128 |
| GGAAAUUAGUGCUGGGCGUTT against Erbb3 | inactive: -0.466 |
| GGAAAGAAGAAAGAACACATT against Tmpo | inactive: -0.13 |
| GGACGAGGACCAGCUAGAATT against Txn2 | inactive: -1.18 |
| GCUUUAUGGAUCUACCAAATT against Fbxl3a | inactive: 0.216 |
| GGUCAGGUUGCCAAGAAGGTT against Sbds | inactive: 0.3 |
| GCCGGAGAUUUAAUAUUGATT against Chml | inactive: 1.23 |
| GGCAGAAAAUUGUUCUUAUTT against Cpt1a | inactive: -0.955 |
| GGUGCAGGCUCUCAAGAAGTT against BC018462 | inactive: 1.95 |
| GCCUUCACGUGUGAAGAAUTT against 2810028N01Rik | inactive: -1.74 |
| GCUGUUGUGUACGUGAGCCTT against Trfr2 | inactive: 0.223 |
| GGCAGAUUGAUAAAAUUCATT against Stag1 | inactive: 0.46 |
| CCAGAGUGUUCACAGAACATT against 4933430F08Rik | inactive: -0.117 |
| GGCUGUUUGUGUUCUGUGCTT against Mst1 | inactive: -0.246 |
| GCUCGUUGUCCAUAGUAGATT against Olfr1273 | inactive: 1.02 |
| GGGUGCACUUUUGAUUCUATT against Ifitm7 | inactive: 0.542 |
| GGGUACAUCUAACUUGAAUTT against Tnfrsf10b | inactive: 0.37 |
| GCCAAGUAUCAUCCAUUCCTT against Olfr23 | inactive: 0.26 |

| Sequence | z-score |
| --- | --- |
| CGUGCUACGAACAUGCUGCTT against Mmd | inactive: 1.73 |
| GCCAGUACAUUGUCCAUGATT against 1700029I01Rik | inactive: -0.146 |
| GGGUGGAAGCUUUUUAAUATT against 0610016J10Rik | inactive: 0.175 |
| CGAUUUUCACCAAUUGUGGTT against Diap2 | inactive: 0.895 |
| GGACUUAUUUCUCAAGUGUTT against Cd5 | inactive: -0.31 |
| GGUGUAAAGUAAUCAAGGCTT against 9430056A22Rik | inactive: 1.61 |
| CCUGUCGUUUAACCCUGUCTT against Ttc11 | inactive: -2.08 |
| GGCUUUGUGCAAGGUCAUUTT against Hcrtr1 | inactive: -0.229 |
| GGUUCACAGAAUUUAAGUGTT against Clecsf6 | inactive: -0.754 |
| GCUAUUAAGACCUUGGGAGTT against 4833432P19Rik | inactive: -0.547 |
| GGGAUCAUCUUGCUGUUCUTT against Cd79a | inactive: -0.16 |
| GGAAUUAUGCUUCCAUCAUTT against Lmyc1 | inactive: -0.654 |
| GGCUCAAAAUGUUCAAGCCTT against Trim12 | inactive: 1.48 |
| GCCAAGCCUUUAUCUACCGTT against 4932442K08Rik | inactive: -0.437 |
| GGCCAGUUGAAUGUGUCUGTT against Acas2l | inactive: 0.409 |
| GGAGAUCGAACUCAGCUCATT against C2ta | inactive: 0.719 |
| GCUUUCAGUGAGGUACAAGTT against LOC432637 | inactive: -0.263 |
| GGAAAAAGCCAGGCCUUUUTT against Rod1 | inactive: -0.287 |
| CCCUUAAAAUGUGCAUAUCTT against 4432406C05Rik | inactive: -0.75 |
| GGUCCUGGAGGAUACUUGGTT against Slc17a3 | inactive: -0.287 |
| GCACAACUUGUGGUAGAAGTT against 4933409G03Rik | inactive: 0.162 |
| GCAGUUGUAGGAACCGAAATT against Cxxc5 | inactive: 0.457 |
| GUGGAAGACUUCACCGGACTT against 6530401D17Rik | inactive: -1.65 |
| GCUGAGCUCGGCUUUUCUATT against BC012256 | inactive: -0.115 |
| GUCCCUCAAAAUGACGGACTT against Tlx3 | inactive: 0.167 |
| CCGUAUGAACGUGUGAUAATT against Rasef | inactive: -0.723 |
| GGUACCAUUCUGCACUACATT against Kcnh6 | inactive: 2.9 |

| Sequence | z-score |
| --- | --- |
| CCAGUAUACCUAUGACUGCTT against Apba3 | inactive: 0.699 |
| CCCUACGGACCGUAAAUAGTT against Psg16 | inactive: -1.93 |
| GCUCAACGAACAUUUAUAGTT against Usp26 | inactive: -0.111 |
| CCUUCAGUAGGAGUGCUGCTT against Peg3 | inactive: 0.464 |
| GGACUUUUAAGUUUGUAUGTT against Grpel1 | inactive: 1.14 |
| GGACUUCAUGGAGAGACGUTT against 4932432K03Rik | inactive: 1.1 |
| CGGUUCUCUACAUUACUGCTT against Tm4sf11 | inactive: -0.749 |
| GGACCUAGAGGAAGUGAAATT against Apoa1 | active: 2.05 |
| CCCUCAAUAGUGCUGGUUATT against Galp | inactive: 0.503 |
| GGAGCAGGAGGUGUAUGUATT against Efs | inactive: 0.408 |
| GCACAAAGAUCCCUCUUCATT against Olfr1162 | inactive: 1.37 |
| CGUUUCCUGCUCAAAUCCUTT against Abhd2 | inactive: 0.857 |
| GGAGCUUUCCACUGAGUUCTT against 1700012A03Rik | inactive: 0.928 |
| CCUUGUGGACUCUUUAAUUTT against Idb2 | inactive: 1.93 |
| GCAGCUAAUGCAGAUAUUATT against Sucla2 | inactive: -1.16 |
| GCCUCAUCAAUCCACUGCATT against BC060632 | inactive: 0.149 |
| CGUAGUACCCAUGAAUUACTT against Adora2a | inactive: 0.234 |
| CCUGUAGGGCUUUUUGAAATT against 2700083E18Rik | inactive: 0.492 |
| GCCGGCUACUGUAUUGAAUTT against Mamdc2 | inactive: 1.95 |
| CCCAUGAUUCCAGAAAAGATT against BC021785 | inactive: -0.63 |
| GGUCAUCAAUGCCACAGCUTT against Lpo | inactive: 0.584 |
| GCAUCACGUACGCCAUCAUTT against AI194318 | inactive: -1.98 |
| GGAUGUGACUAGAAUCAUCTT against Carkl | inactive: 1.84 |
| GGUUAUCAGAGGUUUAGUUTT against 3230401D17Rik | inactive: 1.66 |

A different layout for some results above.
Sequence | z-score
CCAGUAUACCUAUGACUGCTT against Apba3 | inactive: 0.699
CCCUACGGACCGUAAAUAGTT against Psg16 | inactive: -1.93
GGACUUUUAAGUUUGUAUGTT against Grpel1 | inactive: 1.14
GGACUUCAUGGAGAGACGUTT against 4932432K03Rik | inactive: 1.1
CGGUUCUCUACAUUACUGCTT against Tm4sf11 | inactive: -0.749
GGACCUAGAGGAAGUGAAATT against Apoa1 | active: 2.05
CCCUCAAUAGUGCUGGUUATT against Galp | inactive: 0.503
GCACAAAGAUCCCUCUUCATT against Olfr1162 | inactive: 1.37
CGUUUCCUGCUCAAAUCCUTT against Abhd2 | inactive: 0.857
GGAGCUUUCCACUGAGUUCTT against 1700012A03Rik | inactive: 0.928
CCUUGUGGACUCUUUAAUUTT against Idb2 | inactive: 1.93
GCCUCAUCAAUCCACUGCATT against BC060632 | inactive: 0.149
CGUAGUACCCAUGAAUUACTT against Adora2a | inactive: 0.234
CCUGUAGGGCUUUUUGAAATT against 2700083E18Rik | inactive: 0.492
GCCGGCUACUGUAUUGAAUTT against Mamdc2 | inactive: 1.95
CCCAUGAUUCCAGAAAAGATT against BC021785 | inactive: -0.63
GGUCAUCAAUGCCACAGCUTT against Lpo | inactive: 0.584
GCAUCACGUACGCCAUCAUTT against AI194318 | inactive: -1.98
GGAUGUGACUAGAAUCAUCTT against Carkl | inactive: 1.84
GGUUAUCAGAGGUUUAGUUTT against 3230401D17Rik | inactive: 1.66
